{"source": "paper PMC5996148", "experiment_in_all_cases": "protein microarray (ProtoArray v5.0), streptavidin-Alexa Fluor 647", "settings_in_all_cases": "3'-biotin; 20 mM Tris (pH 7.5), 5 mM MgCl2, 100 mM KCl, 0.1% Tween-20, A/T-rich and random oligonucleotide blockers; temperature not stated; high values mean tight binding", "key": {"[1]": {"test_system": "USP47 (human)"}, "[2]": {"test_system": "USP48 (human)"}, "[3]": {"target": "T1, USP5 (UniProt P45974)", "T1 sequence": "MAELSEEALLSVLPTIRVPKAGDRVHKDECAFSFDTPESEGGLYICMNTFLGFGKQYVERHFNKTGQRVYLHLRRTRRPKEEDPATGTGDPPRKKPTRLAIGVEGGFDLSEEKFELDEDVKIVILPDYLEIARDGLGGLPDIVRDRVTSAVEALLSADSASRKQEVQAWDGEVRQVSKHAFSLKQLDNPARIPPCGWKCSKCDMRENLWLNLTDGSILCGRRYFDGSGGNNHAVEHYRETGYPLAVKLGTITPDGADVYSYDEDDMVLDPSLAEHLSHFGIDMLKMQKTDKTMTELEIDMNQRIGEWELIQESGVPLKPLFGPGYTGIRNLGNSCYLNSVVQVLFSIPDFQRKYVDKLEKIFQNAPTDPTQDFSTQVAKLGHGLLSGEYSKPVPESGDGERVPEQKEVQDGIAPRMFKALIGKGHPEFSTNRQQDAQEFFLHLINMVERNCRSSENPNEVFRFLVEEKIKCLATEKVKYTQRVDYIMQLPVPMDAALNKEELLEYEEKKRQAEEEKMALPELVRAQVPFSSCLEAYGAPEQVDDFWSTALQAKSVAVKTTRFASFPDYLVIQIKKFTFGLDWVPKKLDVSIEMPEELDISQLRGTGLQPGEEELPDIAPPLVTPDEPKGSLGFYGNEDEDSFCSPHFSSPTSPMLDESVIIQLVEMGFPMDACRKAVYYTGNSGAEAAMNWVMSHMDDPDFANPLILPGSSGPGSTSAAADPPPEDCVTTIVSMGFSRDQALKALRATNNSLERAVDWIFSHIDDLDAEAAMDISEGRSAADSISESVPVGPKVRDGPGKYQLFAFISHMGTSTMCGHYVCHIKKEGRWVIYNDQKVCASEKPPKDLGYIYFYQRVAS"}, "[4]": {"test_system": "UTP3 (human)"}, "[5]": {"test_system": "Ubiquilin-4 (human)"}, "[6]": {"test_system": "Ubiquilin-like protein (human)"}, "[7]": {"test_system": "Ubiquinone biosynthesis protein COQ9, mitochondrial (human)"}, "[8]": {"test_system": "Ubiquitin carboxyl-terminal hydrolase 24 (human)"}, "[9]": {"test_system": "Uncharacterized protein C11orf48 (human)"}, "[10]": {"test_system": "Uncharacterized protein C11orf74 (human)"}, "[11]": {"test_system": "Uncharacterized protein C12orf60 (human)"}, "[12]": {"test_system": "Uncharacterized protein C17orf66 (human)"}, "[13]": {"test_system": "Uncharacterized protein C1orf74 (human)"}, "[14]": {"test_system": "Uncharacterized protein C2orf57 (human)"}, "[15]": {"test_system": "Uncharacterized protein C2orf62 (human)"}, "[16]": {"test_system": "Uncharacterized protein C4orf32 (human)"}, "[17]": {"test_system": "Uncharacterized protein C7orf50 (human)"}, "[18]": {"test_system": "Uncharacterized protein C8orf41 (human)"}, "[19]": {"test_system": "Uncharacterized protein CXorf38 (human)"}, "[20]": {"test_system": "V-type proton ATPase subunit F (human)"}}, "note": "Some of the results follow. For some assays here: The source does not settle which construct or isoform was used."}
{"sequence": "GGTGACAGGGGTATGGGGAGGGG [G4-2 biotinylated (Ct1)]", "values": [{"measurement": "binding signal", "setting": "[1]", "value": -0.378, "unit": "z-score"}, {"measurement": "binding signal", "setting": "[2]", "value": -0.387, "unit": "z-score"}, {"measurement": "binding signal", "setting": "[3]", "value": -0.378, "unit": "z-score"}, {"measurement": "binding signal", "setting": "[4]", "value": -0.412, "unit": "z-score"}, {"measurement": "binding signal", "setting": "[5]", "value": -0.395, "unit": "z-score"}, {"measurement": "binding signal", "setting": "[6]", "value": -0.391, "unit": "z-score"}, {"measurement": "binding signal", "setting": "[7]", "value": -0.376, "unit": "z-score"}, {"measurement": "binding signal", "setting": "[8]", "value": -0.384, "unit": "z-score"}, {"measurement": "binding signal", "setting": "[9]", "value": -0.373, "unit": "z-score"}, {"measurement": "binding signal", "setting": "[10]", "value": -0.385, "unit": "z-score"}, {"measurement": "binding signal", "setting": "[11]", "value": -0.398, "unit": "z-score"}, {"measurement": "binding signal", "setting": "[12]", "value": -0.386, "unit": "z-score"}, {"measurement": "binding signal", "setting": "[13]", "value": -0.391, "unit": "z-score"}, {"measurement": "binding signal", "setting": "[14]", "value": -0.383, "unit": "z-score"}, {"measurement": "binding signal", "setting": "[15]", "value": -0.397, "unit": "z-score"}, {"measurement": "binding signal", "setting": "[16]", "value": -0.368, "unit": "z-score"}, {"measurement": "binding signal", "setting": "[17]", "value": 4.88, "unit": "z-score"}, {"measurement": "binding signal", "setting": "[18]", "value": -0.378, "unit": "z-score"}, {"measurement": "binding signal", "setting": "[19]", "value": -0.389, "unit": "z-score"}, {"measurement": "binding signal", "setting": "[20]", "value": -0.397, "unit": "z-score"}]}
